Data on 28 compounds can be found in PubChem BioAssay AID1458 (National Center for Advancing Translational Sciences (NCATS), 2008).

Values joined by “and” are separate entries in the source; they are usually repeats but may differ in a detail not shown here. Identical values can stand only once. In all, about 210,000 compounds went through this assay and about 5,900 (2.8%) were called active. Another 5% or so got no clear call; they are omitted. The call rests on the fitted dose curve; in most records, active means well fitted activation curve with a large enough effect; inconclusive means small, poorly fitted or top-dose-only effect; inactive means no such curve, though single readings can be large or run the other way. The list shows a part of the results, in another mix than the full data. Entries without a call were filed so in the source. Some compounds were tested as several samples or in several runs, with calls that do not always agree.
Potency means the concentration at half of the fitted maximal effect.

The nature of the test: qHTS Assay for Enhancers of SMN2 Splice Variant Expression. Further: nearly all actives have a fitted effect of over 55% in size. On activity change, positive = activation: % of control where 0% means no effect. Conditions: HEK293 SMN2-luciferase splicing reporter, luminescence, 30-36 h; activity change, positive = activation: at 46.1 µM (top of the series) unless noted. Put shortly:
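HEK293 cells carry an SMN2 minigene-luciferase reporter in which exon 7 inclusion puts luciferase in frame. Cells were seeded at 2000 cells/well, attached for 10-12 hours, then exposed to compounds for 30-36 hours at 37C before ONE-Glo luminescence.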
For the compound `COCCNc1nc(-c2cc3ccccc3o2)cs1`, the Potency was active: 3.16 µM. As to `Cc1ccc(C(=O)Nc2ccccc2C(=O)NC(C(=O)O)C(C)C)cc1` (stereo not drawn), the Potency was active: 12.6 µM. In the case of `CC(C)c1ccc(OCC(=O)NC2=NCCS2)cc1`, the activity change, positive = activation was -34.7%.

In the case of `O=C(CSc1nnc(-c2ccccc2Cl)o1)Nc1ccc2c(c1)OCCO2`, the Potency was active: 14.1 µM. Turning to `CC(C)OC(=O)CN1C(=O)C(C)(C)Oc2ccc(C(=O)NC(C)(C)C)cc21`, the activity change, positive = activation came to 32.2%. Turning to `N#C/C(=C\c1ccc(Sc2ccccc2)o1)c1nc2ccccc2[nH]1`, the Potency was active: 11.2 µM. Consider `COCCSc1nnc(-c2cccc(C#N)c2)n1C`, for which the activity change, positive = activation was found to be 56.9%.

As to `CCOc1ccc(-c2nc(CSCC(=O)NCc3ccco3)c(C)o2)cc1`, the “activity change, positive = activation” value was inactive: -64.6%. On to `CCN1CCN(S(=O)(=O)c2cc(OCC(=O)NC3CCCCC3)c(C)cc2Cl)CC1`, for which the activity change, positive = activation was -88.2%. Turning to `O=c1c(Cl)c(NCC2CCCO2)cnn1C12CC3CC(CC(C3)C1)C2` (stereo not drawn), the “activity change, positive = activation” value is inactive: -42.1%. `CCOc1ccc(N2C(=O)/C(=C/c3cc(OC)c(OC)c(OC)c3)N(CC(=O)OC)C2=S)cc1`: the “activity change, positive = activation” value is inactive: -39.6%. `Cc1cccc(NC(=O)CSc2ccc(-c3ccc4c(c3)OCO4)nn2)c1C`: the “activity change, positive = activation” value was inactive: 25.3%. On to `COc1ccc(OCC(=O)c2c[nH]c3ccccc23)cc1`, for which the “activity change, positive = activation” value is inactive: 25.8%. For `O=C(Nc1ccc2c(c1)OCO2)N1CCN(c2ncc(C(F)(F)F)cc2Cl)CC1`, the activity change, positive = activation was -70%.

With `CC(=O)/C=C1/SC(CC(=O)O)C(=O)N1c1ccccc1` (stereo not drawn), the “activity change, positive = activation” value is inactive: -9.2%. Take `CC(=O)Nc1ccc(S(=O)(=O)N2CCN(CC(O)COc3ccc4ccccc4c3)CC2)cc1` (stereo not drawn): the activity change, positive = activation was -67.4%. With `O=C(O)Cn1cc(C(=S)N2CCOCC2)c2ccccc21`, the activity change, positive = activation was determined as 36.5%. Regarding `CCOC(=O)c1c(C)n(C)c2ccc(OCC(O)Cn3c(C)nc4ccccc43)cc12` (stereo not drawn), the “activity change, positive = activation” value was inactive: -53.5%. For `COc1ccc2nc(NC(=O)C3CCN(S(=O)(=O)c4cccs4)CC3)sc2c1`, the activity change, positive = activation was -91.1%.

`CCCC(=O)NC(c1ccco1)c1cc(Cl)c2cccnc2c1O` (stereo not drawn): the activity change, positive = activation is -98.7%. As for `O=C(CCN1CCN(C/C=C/c2ccccc2)CC1)Nc1ccc(Cl)cc1`, the activity change, positive = activation was -70.6%.

In the case of `COc1ccc(C2C(=O)c3ccccc3C2=O)cc1`, the Potency entry is “inactive and active: 3.98 µM”.

Regarding `CCn1nnnc1SCC(=O)Nc1cc(C)on1`, the activity change, positive = activation was determined as 40.7%.

As for `COc1cccc(NS(=O)(=O)c2ccc3[nH]cc(C(=O)NCCc4ccccc4)c(=O)c3c2)c1`, the “activity change, positive = activation” value was inactive: -39.3%. For the compound `CSc1ccc(NC(=O)N2CCN(c3nc4ccccc4s3)CC2)cc1`, the activity change, positive = activation was -53.2%. `CC12CCC(=O)N1C(C(=O)Nc1cccc3ccccc13)CS2` (stereo not drawn): the activity change, positive = activation worked out at 45.7%. Take `CC(=O)Nc1ccc2nc(C)n(Cc3ccc(Cl)cc3)c(=O)c2c1`: the Potency is active: 12.6 µM.

`CCn1c(=O)n(CC)c2cc(S(=O)(=O)N3CCC(c4ccccc4)CC3)ccc21`: the activity change, positive = activation is -31.8%.
